Data: the supplement of paper PMC10849652
Some of the results follow.

The chains behind the UniProt entries cited, without tags or fusion partners. Where a name states a change or a piece, a line headed by the entry shows the natural chain unless it says otherwise.
UniProt P22061: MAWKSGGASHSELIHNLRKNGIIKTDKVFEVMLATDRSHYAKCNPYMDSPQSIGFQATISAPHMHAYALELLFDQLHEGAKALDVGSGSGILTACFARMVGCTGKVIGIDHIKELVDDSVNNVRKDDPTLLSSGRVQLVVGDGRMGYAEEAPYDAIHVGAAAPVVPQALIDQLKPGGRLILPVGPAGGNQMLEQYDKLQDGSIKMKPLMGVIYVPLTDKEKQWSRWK
UniProt O95613: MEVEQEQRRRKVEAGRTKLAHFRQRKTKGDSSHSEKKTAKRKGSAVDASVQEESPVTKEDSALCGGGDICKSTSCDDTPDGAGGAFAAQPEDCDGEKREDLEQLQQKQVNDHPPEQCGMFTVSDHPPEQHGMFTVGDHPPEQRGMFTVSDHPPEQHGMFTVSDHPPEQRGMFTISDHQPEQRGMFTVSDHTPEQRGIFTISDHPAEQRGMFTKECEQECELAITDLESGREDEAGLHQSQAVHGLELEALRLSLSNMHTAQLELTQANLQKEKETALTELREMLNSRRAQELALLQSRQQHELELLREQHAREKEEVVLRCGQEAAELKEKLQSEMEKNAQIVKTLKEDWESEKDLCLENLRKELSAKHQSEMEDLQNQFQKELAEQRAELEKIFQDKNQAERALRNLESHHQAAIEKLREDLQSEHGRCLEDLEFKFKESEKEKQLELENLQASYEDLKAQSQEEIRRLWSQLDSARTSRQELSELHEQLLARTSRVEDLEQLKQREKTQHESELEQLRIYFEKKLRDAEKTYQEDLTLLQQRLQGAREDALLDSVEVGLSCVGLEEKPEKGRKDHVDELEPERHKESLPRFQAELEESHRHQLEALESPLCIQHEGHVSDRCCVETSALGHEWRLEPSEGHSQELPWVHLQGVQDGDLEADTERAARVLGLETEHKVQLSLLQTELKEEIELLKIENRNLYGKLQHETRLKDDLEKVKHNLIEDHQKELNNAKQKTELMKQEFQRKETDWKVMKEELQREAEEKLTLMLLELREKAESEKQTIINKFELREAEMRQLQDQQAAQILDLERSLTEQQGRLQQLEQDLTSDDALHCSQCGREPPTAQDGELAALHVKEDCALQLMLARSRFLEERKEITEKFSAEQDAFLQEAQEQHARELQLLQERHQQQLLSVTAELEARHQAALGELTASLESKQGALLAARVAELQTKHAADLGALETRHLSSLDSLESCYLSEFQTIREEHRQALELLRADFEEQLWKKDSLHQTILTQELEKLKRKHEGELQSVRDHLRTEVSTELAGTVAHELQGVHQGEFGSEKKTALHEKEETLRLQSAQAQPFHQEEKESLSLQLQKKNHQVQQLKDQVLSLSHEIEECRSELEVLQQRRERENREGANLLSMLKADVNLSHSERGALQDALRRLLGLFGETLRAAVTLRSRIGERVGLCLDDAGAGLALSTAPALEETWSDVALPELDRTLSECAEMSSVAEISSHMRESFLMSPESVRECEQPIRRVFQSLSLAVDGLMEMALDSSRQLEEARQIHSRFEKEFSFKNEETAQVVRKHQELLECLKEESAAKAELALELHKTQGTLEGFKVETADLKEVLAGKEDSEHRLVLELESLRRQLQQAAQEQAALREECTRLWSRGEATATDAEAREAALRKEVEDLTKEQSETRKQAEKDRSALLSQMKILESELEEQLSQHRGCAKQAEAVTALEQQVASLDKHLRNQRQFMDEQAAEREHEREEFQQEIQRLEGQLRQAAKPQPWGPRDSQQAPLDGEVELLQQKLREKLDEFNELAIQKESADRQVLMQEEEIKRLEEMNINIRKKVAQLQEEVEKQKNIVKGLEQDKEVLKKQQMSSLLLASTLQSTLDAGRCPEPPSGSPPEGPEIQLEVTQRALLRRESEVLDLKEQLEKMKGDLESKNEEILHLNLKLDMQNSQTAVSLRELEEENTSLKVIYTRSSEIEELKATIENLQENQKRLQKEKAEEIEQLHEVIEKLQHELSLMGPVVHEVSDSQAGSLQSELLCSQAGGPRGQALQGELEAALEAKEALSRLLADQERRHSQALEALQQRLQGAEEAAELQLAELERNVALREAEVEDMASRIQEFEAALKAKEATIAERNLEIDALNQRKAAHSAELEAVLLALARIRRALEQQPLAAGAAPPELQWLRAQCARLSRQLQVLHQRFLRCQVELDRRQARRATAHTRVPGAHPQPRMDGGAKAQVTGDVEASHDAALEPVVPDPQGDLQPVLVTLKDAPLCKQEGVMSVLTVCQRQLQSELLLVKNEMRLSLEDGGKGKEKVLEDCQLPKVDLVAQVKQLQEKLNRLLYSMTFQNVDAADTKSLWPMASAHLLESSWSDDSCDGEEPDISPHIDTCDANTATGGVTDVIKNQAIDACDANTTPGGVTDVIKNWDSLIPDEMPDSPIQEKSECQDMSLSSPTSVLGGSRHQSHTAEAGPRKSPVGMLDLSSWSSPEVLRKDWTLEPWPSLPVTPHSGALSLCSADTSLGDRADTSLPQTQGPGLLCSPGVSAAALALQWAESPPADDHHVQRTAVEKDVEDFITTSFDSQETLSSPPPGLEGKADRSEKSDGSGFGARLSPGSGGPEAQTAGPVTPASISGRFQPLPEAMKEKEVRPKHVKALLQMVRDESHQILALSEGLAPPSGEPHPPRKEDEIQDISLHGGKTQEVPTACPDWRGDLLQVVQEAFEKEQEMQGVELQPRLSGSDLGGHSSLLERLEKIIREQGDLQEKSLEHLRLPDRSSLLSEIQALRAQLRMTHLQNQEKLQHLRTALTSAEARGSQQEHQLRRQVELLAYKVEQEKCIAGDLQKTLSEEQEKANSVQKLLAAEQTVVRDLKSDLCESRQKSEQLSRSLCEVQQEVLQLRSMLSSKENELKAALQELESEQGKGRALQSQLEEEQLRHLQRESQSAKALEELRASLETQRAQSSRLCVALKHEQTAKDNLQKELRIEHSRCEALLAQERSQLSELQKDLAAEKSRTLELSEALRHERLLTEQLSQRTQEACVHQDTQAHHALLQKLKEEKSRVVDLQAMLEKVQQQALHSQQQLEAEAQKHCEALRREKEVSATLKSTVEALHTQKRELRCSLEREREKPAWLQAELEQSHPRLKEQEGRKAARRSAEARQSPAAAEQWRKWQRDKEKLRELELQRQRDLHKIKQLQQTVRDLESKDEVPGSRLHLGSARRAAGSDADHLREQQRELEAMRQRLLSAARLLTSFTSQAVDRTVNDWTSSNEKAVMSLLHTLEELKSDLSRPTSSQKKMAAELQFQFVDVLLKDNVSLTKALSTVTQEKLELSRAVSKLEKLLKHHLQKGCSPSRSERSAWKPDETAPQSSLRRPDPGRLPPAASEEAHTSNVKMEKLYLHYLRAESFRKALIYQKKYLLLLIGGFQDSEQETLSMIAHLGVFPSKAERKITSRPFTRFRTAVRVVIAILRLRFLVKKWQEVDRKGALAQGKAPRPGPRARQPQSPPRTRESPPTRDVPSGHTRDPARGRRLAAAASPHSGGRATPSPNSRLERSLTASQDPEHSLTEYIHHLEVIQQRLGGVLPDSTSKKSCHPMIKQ
UniProt P18669: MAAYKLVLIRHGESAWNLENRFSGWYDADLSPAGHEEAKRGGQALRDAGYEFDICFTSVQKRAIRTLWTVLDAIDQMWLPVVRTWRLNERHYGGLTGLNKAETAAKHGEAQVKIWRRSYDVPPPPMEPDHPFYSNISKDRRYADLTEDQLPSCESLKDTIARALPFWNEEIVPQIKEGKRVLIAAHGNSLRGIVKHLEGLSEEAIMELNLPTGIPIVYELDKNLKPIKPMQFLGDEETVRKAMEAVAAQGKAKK
UniProt P30101, whole entry, looked up: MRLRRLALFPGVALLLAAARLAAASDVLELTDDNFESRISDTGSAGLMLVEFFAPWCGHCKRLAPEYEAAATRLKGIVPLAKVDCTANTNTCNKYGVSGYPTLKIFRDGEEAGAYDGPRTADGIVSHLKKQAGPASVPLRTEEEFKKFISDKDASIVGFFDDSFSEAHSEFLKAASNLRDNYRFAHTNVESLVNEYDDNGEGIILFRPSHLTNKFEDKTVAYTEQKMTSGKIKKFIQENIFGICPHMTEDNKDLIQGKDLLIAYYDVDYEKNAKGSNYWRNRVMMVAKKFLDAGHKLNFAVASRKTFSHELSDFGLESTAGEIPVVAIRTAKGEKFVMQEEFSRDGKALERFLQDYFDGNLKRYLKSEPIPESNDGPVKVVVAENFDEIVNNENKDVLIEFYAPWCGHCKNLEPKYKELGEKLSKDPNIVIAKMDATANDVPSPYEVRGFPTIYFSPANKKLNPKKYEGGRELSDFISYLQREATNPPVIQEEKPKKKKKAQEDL
UniProt Q8WW12: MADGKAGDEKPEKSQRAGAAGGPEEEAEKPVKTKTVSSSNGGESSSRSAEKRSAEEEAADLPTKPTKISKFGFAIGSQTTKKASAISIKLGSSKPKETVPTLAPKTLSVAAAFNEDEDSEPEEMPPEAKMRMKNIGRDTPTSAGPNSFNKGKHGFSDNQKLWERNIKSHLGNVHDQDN
UniProt P60673: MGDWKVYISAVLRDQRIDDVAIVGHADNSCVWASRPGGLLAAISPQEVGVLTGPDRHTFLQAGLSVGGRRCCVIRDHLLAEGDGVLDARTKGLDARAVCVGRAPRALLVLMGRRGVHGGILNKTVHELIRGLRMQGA
UniProt Q16822, whole entry, looked up: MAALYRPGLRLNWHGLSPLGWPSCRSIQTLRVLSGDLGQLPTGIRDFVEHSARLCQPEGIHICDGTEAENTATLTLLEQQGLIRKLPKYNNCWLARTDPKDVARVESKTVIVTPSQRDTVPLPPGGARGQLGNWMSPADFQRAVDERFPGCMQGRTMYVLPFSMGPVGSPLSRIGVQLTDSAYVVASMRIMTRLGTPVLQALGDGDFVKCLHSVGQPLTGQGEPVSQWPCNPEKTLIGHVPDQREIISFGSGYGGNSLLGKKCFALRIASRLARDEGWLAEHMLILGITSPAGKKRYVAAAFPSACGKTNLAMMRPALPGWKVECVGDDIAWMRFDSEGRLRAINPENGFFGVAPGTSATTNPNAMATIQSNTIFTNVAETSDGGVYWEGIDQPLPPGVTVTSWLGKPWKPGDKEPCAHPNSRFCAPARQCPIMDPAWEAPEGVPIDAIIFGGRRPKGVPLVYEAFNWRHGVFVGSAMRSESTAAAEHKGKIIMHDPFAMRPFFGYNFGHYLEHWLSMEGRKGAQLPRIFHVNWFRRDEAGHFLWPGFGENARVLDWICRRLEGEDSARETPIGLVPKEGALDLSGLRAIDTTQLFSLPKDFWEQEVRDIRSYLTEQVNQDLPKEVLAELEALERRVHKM
UniProt O43933: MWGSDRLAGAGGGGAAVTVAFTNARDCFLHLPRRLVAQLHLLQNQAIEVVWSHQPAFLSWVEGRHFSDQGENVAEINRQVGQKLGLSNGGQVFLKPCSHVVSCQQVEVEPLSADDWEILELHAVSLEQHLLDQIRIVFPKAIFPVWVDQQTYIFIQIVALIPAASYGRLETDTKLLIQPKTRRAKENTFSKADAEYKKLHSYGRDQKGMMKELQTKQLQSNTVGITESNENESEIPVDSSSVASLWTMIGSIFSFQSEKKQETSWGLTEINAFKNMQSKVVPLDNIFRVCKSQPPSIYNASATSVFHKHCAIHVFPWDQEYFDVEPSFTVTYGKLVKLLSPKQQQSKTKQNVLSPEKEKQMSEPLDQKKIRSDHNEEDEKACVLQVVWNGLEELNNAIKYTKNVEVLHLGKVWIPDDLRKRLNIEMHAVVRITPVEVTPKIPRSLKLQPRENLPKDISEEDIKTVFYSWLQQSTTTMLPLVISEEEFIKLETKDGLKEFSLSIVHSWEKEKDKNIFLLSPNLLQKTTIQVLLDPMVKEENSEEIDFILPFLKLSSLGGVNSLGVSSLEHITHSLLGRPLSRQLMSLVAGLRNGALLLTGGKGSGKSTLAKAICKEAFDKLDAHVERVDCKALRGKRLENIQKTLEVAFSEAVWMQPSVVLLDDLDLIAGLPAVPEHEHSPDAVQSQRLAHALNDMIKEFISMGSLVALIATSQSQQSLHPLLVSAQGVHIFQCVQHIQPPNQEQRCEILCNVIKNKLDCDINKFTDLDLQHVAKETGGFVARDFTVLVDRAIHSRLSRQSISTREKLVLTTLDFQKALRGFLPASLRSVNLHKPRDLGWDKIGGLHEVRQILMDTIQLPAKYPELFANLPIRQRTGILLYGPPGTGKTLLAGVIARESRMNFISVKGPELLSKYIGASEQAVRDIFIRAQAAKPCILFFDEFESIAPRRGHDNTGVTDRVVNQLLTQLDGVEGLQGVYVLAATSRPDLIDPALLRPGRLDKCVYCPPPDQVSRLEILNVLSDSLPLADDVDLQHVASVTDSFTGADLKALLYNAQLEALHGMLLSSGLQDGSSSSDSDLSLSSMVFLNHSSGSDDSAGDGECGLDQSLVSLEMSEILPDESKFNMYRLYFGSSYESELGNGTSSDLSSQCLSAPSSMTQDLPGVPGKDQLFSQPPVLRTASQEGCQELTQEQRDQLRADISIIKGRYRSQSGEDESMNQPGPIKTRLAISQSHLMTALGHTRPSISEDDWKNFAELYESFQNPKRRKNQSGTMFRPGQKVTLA

Legend:
Experiment in all cases: log2 fold change, soluble protein after heating vs DMSO (PISA); higher = thermal stabilisation; K562 lysate, 10 uM; active = over 0.2 and 3.5 SD of the protein, either way, in both replicates (recomputed)
vemurafenib = compound: CCCS(=O)(=O)Nc1ccc(F)c(C(=O)c2c[nH]c3ncc(-c4ccc(Cl)cc4)cc23)c1F [vemurafenib]
How it was run: (§1)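 Values give the log-two fold change in thermal stability against solvent controls, from duplicates. Crude K562 extract at 1 mg/mL protein, made by dounce homogenisation in PBS pH 7.4 with 1 mM MgCl2, was treated with 10 μM compound for 30 min. After 3 min heating across 48°C-58°C, aliquots were pooled, adjusted to 0.5% NP-40 at 4°C and centrifuged at 21,000xg for 90 min. The supernatant was measured by TMTpro 16plex LC-MS/MS with channel sums equalised.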

[1] = compound: CCCS(=O)(=O)Nc1ccc(F)c(C(=O)c2c[nH]c3ncc(Cl)cc23)c1F
How it was run: as §1

barasertib = compound: CCN(CCCOc1ccc2c(Nc3cc(CC(=O)Nc4cccc(F)c4)[nH]n3)ncnc2c1)CCOP(=O)(O)O [barasertib]
How it was run: as §1

[2] = compound: CC[C@@H]1C(=O)N(C)c2cnc(Nc3ccc(C(=O)NC4CCN(C)CC4)cc3OC)nc2N1C1CCCC1
How it was run: as §1

volasertib = compound: CC[C@@H]1C(=O)N(C)c2cnc(Nc3ccc(C(=O)N[C@H]4CC[C@H](N5CCN(CC6CC6)CC5)CC4)cc3OC)nc2N1C(C)C [volasertib]
How it was run: as §1

[3] = compound: CCn1c(C(=O)N(C2CC2)C2CC2)cc2c3c(ncn3C)c(Nc3cc(C)n(C)n3)nc21
How it was run: as §1

[4] = compound: CCn1cc(-c2ccnc3[nH]c(-c4cccc(CN(C)C)c4)cc23)c(-c2ccc(NC(=O)N(C)C)cc2)n1
How it was run: as §1

[5] = compound: CN1CCC(CNc2ccc3ncc(-c4cccc(OC(F)(F)F)c4)n3n2)CC1
How it was run: as §1

saracatinib = compound: CN1CCN(CCOc2cc(OC3CCOCC3)c3c(Nc4c(Cl)ccc5c4OCO5)ncnc3c2)CC1 [saracatinib]
How it was run: as §1

sotrastaurin = compound: CN1CCN(c2nc(C3=C(c4c[nH]c5ccccc45)C(=O)NC3=O)c3ccccc3n2)CC1 [sotrastaurin]
How it was run: as §1

Row | Target | log2 fold change (vemurafenib) | log2 fold change [1] | log2 fold change (barasertib) | log2 fold change [2] | log2 fold change (volasertib) | log2 fold change [3] | log2 fold change [4] | log2 fold change [5] | log2 fold change (saracatinib) | log2 fold change (sotrastaurin)
1 | PCMT1 isoform 2 (UniProt P22061) | inactive: 0.019 | inactive: -0.006 | inactive: 0.055 | inactive: 0.006 | inactive: -0.014 | inactive: 0.028 | inactive: 0.054 | inactive: -0.043 | inactive: -0.002 | inactive: -0.018
2 | PDXP (UniProt Q96GD0) | inactive: 0.009 | inactive: -0.017 | inactive: 0.008 | inactive: 0.036 | inactive: 0.029 | inactive: -0.028 | inactive: -0.074 | inactive: 0.069 | inactive: 0.003 | inactive: -0.044
3 | PDCD6IP (UniProt Q8WUM4) | inactive: -0.003 | inactive: 0.015 | inactive: 0.083 | inactive: -0.061 | inactive: 0.006 | inactive: 0.013 | inactive: -0.073 | inactive: -0.035 | inactive: -0.068 | inactive: -0.139
4 | PDPR (UniProt Q8NCN5) | inactive: -0.013 | inactive: 0.032 | inactive: 0.011 | inactive: 0.043 | inactive: -0.023 | inactive: -0.014 | inactive: -0.068 | inactive: 0.002 | inactive: 0.005 | inactive: -0.007
5 | PAXX (UniProt Q9BUH6) | inactive: 0.014 | inactive: -0.014 | inactive: -0.044 | inactive: 0.008 | inactive: 0.054 | inactive: 0.012 | inactive: -0.005 | inactive: 0.047 | inactive: -0.009 | inactive: 0.043
6 | PARVB (UniProt Q9HBI1) | inactive: 0.029 | inactive: 0.007 | inactive: 0.004 | inactive: -0.015 | inactive: -0.079 | inactive: 0.008 | inactive: -0.021 | inactive: 0.007 | inactive: 0.009 | inactive: 0.051
7 | PCNT (UniProt O95613) | inactive: 0 | inactive: 0 | inactive: 0.037 | inactive: 0.02 | inactive: -0.012 | inactive: -0.003 | inactive: -0.196 | inactive: 0.028 | inactive: 0.014 | inactive: 0.023
8 | PDE2A (UniProt O00408) | active: 0.374 | inactive: -0.015 | inactive: -0.015 | inactive: -0.215 | inactive: 0.041 | inactive: -0.173 | inactive: -0.135 | inactive: 0.023 | inactive: -0.042 | inactive: 0.039
9 | PARP2 (UniProt Q9UGN5) | inactive: 0.011 | inactive: -0.005 | inactive: 0.014 | inactive: -0.141 | inactive: 0.012 | inactive: 0.04 | inactive: 0.097 | inactive: 0.003 | inactive: -0.067 | inactive: 0.049
10 | PAXIP1 (UniProt Q6ZW49) | inactive: -0.036 | inactive: 0.037 | inactive: 0.046 | inactive: 0.02 | inactive: -0.04 | inactive: 0 | inactive: 0.043 | inactive: -0.008 | inactive: -0.01 | inactive: 0.038
11 | PCIF1 (UniProt Q9H4Z3) | inactive: 0.03 | inactive: -0.012 | inactive: 0.088 | inactive: 0.023 | inactive: 0.005 | inactive: 0.029 | inactive: -0.223 | inactive: 0.011 | inactive: -0.001 | inactive: -0.036
12 | PFDN1 (UniProt O60925) | inactive: -0.035 | inactive: -0.052 | inactive: 0.1 | inactive: 0.01 | inactive: 0.086 | inactive: 0.07 | inactive: 0.05 | inactive: -0.134 | inactive: 0.021 | inactive: -0.053
13 | PGAM1 (UniProt P18669) | inactive: -0.02 | inactive: 0.035 | inactive: -0.061 | inactive: 0.007 | inactive: -0.007 | inactive: -0.01 | inactive: 0.323 | inactive: -0.026 | inactive: -0.012 | inactive: -0.026
14 | PFN1 (UniProt P07737) | inactive: -0.01 | inactive: -0.01 | inactive: 0.012 | inactive: 0.02 | inactive: 0.015 | inactive: 0.02 | inactive: -0.02 | inactive: 0.028 | inactive: -0.004 | inactive: -0.005
15 | PDCD2L (UniProt Q9BRP1) | inactive: 0.058 | inactive: 0.004 | inactive: -0.06 | inactive: 0.011 | inactive: -0.039 | inactive: -0.017 | inactive: -0.076 | inactive: 0.009 | inactive: -0.003 | inactive: -0.012
16 | PDIA3 (UniProt P30101) | inactive: -0.039 | inactive: -0.021 | inactive: -0.035 | inactive: -0.013 | inactive: 0.007 | inactive: 0.016 | inactive: 0.03 | inactive: -0.038 | inactive: -0.02 | inactive: 0.008

Whole records as entered above. Order of values: log2 fold change (vemurafenib) | log2 fold change [1] | log2 fold change (barasertib) | log2 fold change [2] | log2 fold change (volasertib) | log2 fold change [3] | log2 fold change [4] | log2 fold change [5] | log2 fold change (saracatinib) | log2 fold change (sotrastaurin)
PAXIP1 (UniProt Q6ZW49) as listed: inactive: -0.036 | inactive: 0.037 | inactive: 0.046 | inactive: 0.02 | inactive: -0.04 | inactive: 0 | inactive: 0.043 | inactive: -0.008 | inactive: -0.01 | inactive: 0.038
PDPR (UniProt Q8NCN5) as listed: inactive: -0.013 | inactive: 0.032 | inactive: 0.011 | inactive: 0.043 | inactive: -0.023 | inactive: -0.014 | inactive: -0.068 | inactive: 0.002 | inactive: 0.005 | inactive: -0.007

Additional records follow.

Row | Target | log2 fold change (vemurafenib) | log2 fold change [1] | log2 fold change (barasertib) | log2 fold change [2] | log2 fold change (volasertib) | log2 fold change [3] | log2 fold change [4] | log2 fold change [5] | log2 fold change (saracatinib) | log2 fold change (sotrastaurin)
17 | PCNP (UniProt Q8WW12) | inactive: -0.001 | inactive: -0.004 | inactive: -0.054 | inactive: 0.06 | inactive: 0.044 | inactive: -0.054 | inactive: -0.132 | inactive: 0.09 | inactive: -0.004 | inactive: -0.058
18 | PEX2 (UniProt P28328) | inactive: 0.079 | inactive: -0.047 | inactive: 0.174 |  | inactive: 0.024 | inactive: 0.052 | inactive: 0.011 | inactive: 0.024 | inactive: -0.086 | inactive: 0.036
19 | PFN3 (UniProt P60673) | inactive: 0.059 | inactive: 0 |  | inactive: 0.112 | inactive: 0.056 |  | active: -0.706 | inactive: 0.109 |  | inactive: 0.042
20 | PFKFB3 isoform 4 (UniProt Q16875) | inactive: -0.022 | inactive: 0.134 | inactive: 0.003 | inactive: -0.003 | inactive: 0.067 | inactive: 0.037 | inactive: 0.003 | inactive: -0.046 | inactive: -0.024 | inactive: 0.034
21 | PCLAF (UniProt Q15004) | inactive: -0.016 |  | inactive: -0.068 | inactive: 0.057 |  | inactive: -0.033 | inactive: -0.067 | inactive: 0.121 | inactive: -0.013 | inactive: 0.011
22 | PCNX3 (UniProt Q9H6A9) | inactive: -0.034 | inactive: 0.176 | inactive: 0.067 | inactive: 0.026 | inactive: 0.158 |  | inactive: -0.024 | inactive: -0.218 | inactive: 0.078 | inactive: -0.086
23 | PCK2 (UniProt Q16822) | inactive: 0.005 | inactive: 0.028 | inactive: 0.013 | inactive: 0.009 | inactive: -0.022 | inactive: -0.03 | inactive: -0.015 | inactive: 0.01 | inactive: -0.047 | inactive: -0.05
24 | PEX14 (UniProt O75381) | inactive: -0.016 | inactive: 0.01 | inactive: 0.019 | inactive: 0.031 | inactive: -0.026 | inactive: 0.003 | inactive: -0.101 | inactive: 0.003 | inactive: -0.014 | inactive: 0.013
25 | PCID2 (UniProt Q5JVF3) | inactive: 0.033 | inactive: 0.052 | inactive: 0.063 | inactive: -0.01 | inactive: -0.044 | inactive: 0.031 | inactive: 0.035 | inactive: 0.005 | inactive: 0.01 | inactive: 0.036
26 | PEX1 (UniProt O43933) | inactive: -0.34 | inactive: 0.076 |  | inactive: -0.159 | inactive: 0.055 | inactive: 0.039 |  |  |  | inactive: -0.03
27 | PDLIM4 (UniProt P50479) | inactive: 0.01 | inactive: 0.016 | inactive: -0.059 | inactive: 0.028 | inactive: 0.006 | inactive: 0.013 | inactive: 0.003 | inactive: 0.057 | inactive: 0.004 | inactive: -0.02
28 | PARP9 (UniProt Q8IXQ6) | inactive: 0.11 | inactive: 0.007 | inactive: 0.045 | inactive: -0.128 | inactive: 0.048 | inactive: -0.192 |  |  | inactive: -0.106 | inactive: -0.093
29 | PEX13 (UniProt Q92968) | inactive: -0.042 | inactive: 0.054 | inactive: 0.042 | inactive: 0.031 | inactive: 0.052 | inactive: 0.036 | inactive: -0.019 | inactive: -0.041 | inactive: 0.036 | inactive: 0
30 | PEMT isoform 2 (UniProt Q9UBM1) | inactive: 0.214 | inactive: 0.032 |  |  | inactive: -0.096 |  | inactive: 0.129 | inactive: 0.041 |  | 
31 | PATL1 (UniProt Q86TB9) | inactive: -0.049 | inactive: 0.019 | inactive: 0.04 | inactive: 0.02 | inactive: -0.036 | inactive: 0.027 | inactive: 0.007 | inactive: -0.009 | inactive: -0.027 | inactive: 0.086
